Data reported in patent US6649637B2, “Inhibition of intracellular replication by pyridinylimidazoles” (priority 2001, dated 2003).
Some entries share one result that the patent states for a list of compounds.

Test system: extracellular T. gondii tachyzoites
Experiment: Incubation of extracellular tachyzoites with drug, wash, then [3H]uracil incorporation in fresh fibroblasts
Type: cell-based, Toxoplasma gondii
Conditions: 10 μM, extracellular tachyzoites incubated 1 hour, washed; at 48 hours

C[S+]([O-])c1ccc(-c2nc(-c3ccc(F)cc3)c(-c3ccncc3)[nH]2)cc1 (stereo not shown) [SB203580, 4(4-fluorophenyl)-2-(4-methylsulfinylphenyl)-5(4-pyridyl)1H-imidazole]
reduction of [3H]uracil incorporation: 70 to 90%
